In this experiment the target is Polycystin-1 with eGFP and three HA tags at its C-terminus, from the Pkd1^eGFP knock-in allele (mouse) (UniProt O08852). In words: affinity purification with mass spectrometry; GFP-trap IP from lysates of 8 P1 mouse heads per genotype (Pkd1^eGFP/eGFP against Pkd1^wt/wt, about 80 mg protein), low-stringency fast washes. Three experiments; MaxQuant non-normalized enrichment ratios.

Sequences of proteins named here, by UniProt entry; tags and fusion partners are left off. Residues count along the entry.
UniProt O08852, residues 24-4293: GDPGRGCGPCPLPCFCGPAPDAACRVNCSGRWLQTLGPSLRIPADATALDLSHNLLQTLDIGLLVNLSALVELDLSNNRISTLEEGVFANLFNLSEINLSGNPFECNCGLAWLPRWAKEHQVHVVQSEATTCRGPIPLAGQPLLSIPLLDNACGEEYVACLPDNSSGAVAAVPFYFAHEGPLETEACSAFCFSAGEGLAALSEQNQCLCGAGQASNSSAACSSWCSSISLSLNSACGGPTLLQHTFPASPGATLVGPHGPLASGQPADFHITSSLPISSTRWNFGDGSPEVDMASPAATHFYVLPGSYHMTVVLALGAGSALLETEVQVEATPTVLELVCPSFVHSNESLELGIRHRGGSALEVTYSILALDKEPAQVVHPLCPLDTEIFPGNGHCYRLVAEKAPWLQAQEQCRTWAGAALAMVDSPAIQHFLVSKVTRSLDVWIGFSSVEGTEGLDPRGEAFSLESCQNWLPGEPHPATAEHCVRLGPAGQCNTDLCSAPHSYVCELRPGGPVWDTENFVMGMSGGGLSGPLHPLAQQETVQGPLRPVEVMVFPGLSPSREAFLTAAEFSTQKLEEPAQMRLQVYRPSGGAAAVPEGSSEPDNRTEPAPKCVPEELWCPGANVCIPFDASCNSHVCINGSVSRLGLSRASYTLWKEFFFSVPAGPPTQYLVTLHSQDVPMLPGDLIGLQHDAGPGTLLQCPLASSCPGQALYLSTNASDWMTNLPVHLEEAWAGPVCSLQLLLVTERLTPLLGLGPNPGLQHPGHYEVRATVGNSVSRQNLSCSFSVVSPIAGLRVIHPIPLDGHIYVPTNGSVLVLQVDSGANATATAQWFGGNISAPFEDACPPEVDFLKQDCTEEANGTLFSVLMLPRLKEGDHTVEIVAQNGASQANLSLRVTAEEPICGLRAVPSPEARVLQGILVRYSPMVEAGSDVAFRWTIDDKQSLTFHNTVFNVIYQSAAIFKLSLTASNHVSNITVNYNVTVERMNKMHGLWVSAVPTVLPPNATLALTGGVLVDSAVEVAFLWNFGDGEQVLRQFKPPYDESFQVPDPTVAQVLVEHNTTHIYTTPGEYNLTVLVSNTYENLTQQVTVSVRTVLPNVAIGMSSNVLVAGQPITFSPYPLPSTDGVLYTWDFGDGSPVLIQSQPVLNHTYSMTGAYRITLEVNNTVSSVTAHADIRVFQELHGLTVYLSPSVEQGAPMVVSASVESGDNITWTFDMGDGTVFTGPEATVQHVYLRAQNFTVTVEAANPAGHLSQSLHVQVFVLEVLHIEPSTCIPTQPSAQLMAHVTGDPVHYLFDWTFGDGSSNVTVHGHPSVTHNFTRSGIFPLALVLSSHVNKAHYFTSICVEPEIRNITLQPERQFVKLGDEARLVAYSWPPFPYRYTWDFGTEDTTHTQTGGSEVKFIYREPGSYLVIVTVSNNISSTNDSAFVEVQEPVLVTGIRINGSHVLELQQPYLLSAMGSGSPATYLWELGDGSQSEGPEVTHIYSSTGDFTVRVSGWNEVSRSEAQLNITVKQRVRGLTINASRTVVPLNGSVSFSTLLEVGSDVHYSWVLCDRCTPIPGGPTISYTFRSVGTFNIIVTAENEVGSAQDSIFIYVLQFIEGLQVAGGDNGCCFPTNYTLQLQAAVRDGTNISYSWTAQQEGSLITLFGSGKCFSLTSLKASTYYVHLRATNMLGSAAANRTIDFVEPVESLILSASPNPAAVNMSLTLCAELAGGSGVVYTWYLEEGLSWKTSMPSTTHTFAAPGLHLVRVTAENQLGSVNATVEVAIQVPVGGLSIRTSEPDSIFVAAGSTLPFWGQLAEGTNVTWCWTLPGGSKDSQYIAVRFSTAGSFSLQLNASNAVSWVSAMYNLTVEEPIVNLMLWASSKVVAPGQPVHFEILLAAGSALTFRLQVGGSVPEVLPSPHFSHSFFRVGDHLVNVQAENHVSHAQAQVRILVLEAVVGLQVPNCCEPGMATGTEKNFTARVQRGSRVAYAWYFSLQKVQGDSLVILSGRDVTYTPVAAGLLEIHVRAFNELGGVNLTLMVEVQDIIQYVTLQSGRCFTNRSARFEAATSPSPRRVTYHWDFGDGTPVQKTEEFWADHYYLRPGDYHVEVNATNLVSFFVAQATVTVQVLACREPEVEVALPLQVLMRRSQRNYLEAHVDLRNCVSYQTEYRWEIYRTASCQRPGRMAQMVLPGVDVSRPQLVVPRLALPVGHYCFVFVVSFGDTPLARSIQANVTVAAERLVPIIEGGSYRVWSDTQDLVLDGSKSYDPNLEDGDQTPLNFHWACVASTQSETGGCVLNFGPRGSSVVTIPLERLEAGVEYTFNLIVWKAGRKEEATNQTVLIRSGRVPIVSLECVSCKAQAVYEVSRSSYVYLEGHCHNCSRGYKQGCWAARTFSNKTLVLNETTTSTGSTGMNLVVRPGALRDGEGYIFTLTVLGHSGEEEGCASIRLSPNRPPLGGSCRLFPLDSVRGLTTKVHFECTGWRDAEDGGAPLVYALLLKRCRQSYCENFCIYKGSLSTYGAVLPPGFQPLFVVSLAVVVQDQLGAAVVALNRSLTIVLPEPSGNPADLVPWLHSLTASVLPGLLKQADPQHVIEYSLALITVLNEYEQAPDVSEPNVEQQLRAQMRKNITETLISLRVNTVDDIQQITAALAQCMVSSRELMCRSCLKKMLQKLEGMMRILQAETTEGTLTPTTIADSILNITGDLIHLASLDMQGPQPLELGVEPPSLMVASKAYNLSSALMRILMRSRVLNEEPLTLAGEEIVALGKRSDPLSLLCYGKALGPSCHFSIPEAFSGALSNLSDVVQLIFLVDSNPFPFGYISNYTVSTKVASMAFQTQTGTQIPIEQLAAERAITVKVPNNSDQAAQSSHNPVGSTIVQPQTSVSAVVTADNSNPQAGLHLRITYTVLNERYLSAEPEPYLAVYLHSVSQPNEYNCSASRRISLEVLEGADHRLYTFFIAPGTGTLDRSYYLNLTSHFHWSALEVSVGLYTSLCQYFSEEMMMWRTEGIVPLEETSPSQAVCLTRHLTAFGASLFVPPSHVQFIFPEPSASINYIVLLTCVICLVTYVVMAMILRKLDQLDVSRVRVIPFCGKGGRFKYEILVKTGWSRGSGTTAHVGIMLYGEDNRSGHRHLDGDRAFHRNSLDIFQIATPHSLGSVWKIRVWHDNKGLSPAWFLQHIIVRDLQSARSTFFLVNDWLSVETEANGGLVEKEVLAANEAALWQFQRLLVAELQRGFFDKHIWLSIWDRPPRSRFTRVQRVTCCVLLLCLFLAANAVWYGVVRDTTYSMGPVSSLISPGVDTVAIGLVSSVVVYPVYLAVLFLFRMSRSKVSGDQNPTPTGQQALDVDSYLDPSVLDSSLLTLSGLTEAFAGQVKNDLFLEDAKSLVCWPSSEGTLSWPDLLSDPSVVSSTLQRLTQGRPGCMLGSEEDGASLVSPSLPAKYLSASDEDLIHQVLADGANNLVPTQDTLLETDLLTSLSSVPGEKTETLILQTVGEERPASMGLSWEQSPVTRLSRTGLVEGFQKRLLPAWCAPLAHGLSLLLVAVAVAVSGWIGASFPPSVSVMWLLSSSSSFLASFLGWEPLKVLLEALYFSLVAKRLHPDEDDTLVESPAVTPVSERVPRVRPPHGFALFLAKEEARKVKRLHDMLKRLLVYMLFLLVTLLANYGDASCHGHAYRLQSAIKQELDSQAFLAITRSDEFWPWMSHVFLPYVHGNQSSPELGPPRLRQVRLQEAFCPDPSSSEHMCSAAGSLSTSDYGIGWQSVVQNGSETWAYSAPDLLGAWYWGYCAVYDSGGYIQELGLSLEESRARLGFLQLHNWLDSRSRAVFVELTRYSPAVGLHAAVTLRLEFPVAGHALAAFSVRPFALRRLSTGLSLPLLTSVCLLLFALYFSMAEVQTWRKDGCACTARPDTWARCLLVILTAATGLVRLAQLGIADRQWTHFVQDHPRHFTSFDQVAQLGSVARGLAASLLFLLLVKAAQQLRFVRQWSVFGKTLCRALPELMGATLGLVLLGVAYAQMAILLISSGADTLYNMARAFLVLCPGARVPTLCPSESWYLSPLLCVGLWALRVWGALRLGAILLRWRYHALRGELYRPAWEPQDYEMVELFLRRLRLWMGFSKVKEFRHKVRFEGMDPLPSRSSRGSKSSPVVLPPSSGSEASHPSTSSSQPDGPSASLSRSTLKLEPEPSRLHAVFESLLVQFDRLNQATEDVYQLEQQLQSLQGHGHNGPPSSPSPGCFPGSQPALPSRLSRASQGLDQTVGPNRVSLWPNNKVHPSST

These are yes or no findings as the source states them, for the method shown. In cells and extracts the contact can be indirect. A yes stands for co-enrichment or nearness to the bait. Other partners may have been found.

B1: nicotinamide nucleotide transhydrogenase (protein, UniProt Q61941 44-1086)
chain: CKSPVKPGIPYKQLTVGVPKEIFQNEKRVALSPAGVQALVKQGFNVVVESGAGEASKFPDDLYRAAGAQIQGMKEVLASDLVVKVRAPMVNPTLGAHEADFLKPSGTLISFIYPAQNPDLLNKLSERKTTVLAMDQVPRVTIAQGYDALSSMANISGYKAVVLAANHFGRFFTGQITAAGKVPPAKILIVGGGVAGLASAGAAKSMGAVVRGFDTRAAALEQFKSLGAEPLEVDLKESGEGQGGYAKEMSKEFIEAEMKLFAQQCKEVDILISTALIPGKKAPVLFSKEMIESMKEGSVVVDLAAEAGGNFETTKPGELYVHKGITHIGYTDLPSRMATQASTLYSNNITKLLKAISPDKDNFHFEVKDDFDFGTMSHVIRGTVVMKDGKVIFPAPTPKNIPEEAPVKPKTVAELEAEKAGTVSMYTKTLTTASVYSAGLTGMLGLGIVAPNVAFSQMVTTFGLAGIIGYHTVWGVTPALHSPLMSVTNAISGLTAVGGLALMGGHFYPSTTSQSLAALATFISSVNIAGGFLVTQRMLDMFKRPTDPPEYNYLYLLPGGTFVGGYLAALYGGYNIEEIMYLGSGLCCVGALGGLSTQGTARLGNALGMIGVAGGLAATLGGLKPDPQLLAQMSGAMAMGGTIGLTIAKRIQISDLPQLVAAFHSLVGLAAVLTCMAEYIVEYPHFAMDATSNFTKIVAYLGTYIGGVTFSGSLVAYGKLQGILKSAPLLLPGRHALNAGLLAASVGGIIPFMADPSFTTGITCLGSVSGLSTLMGVTLTAAIGGADMPVVITVLNSYSGWALCAEGFLLNNNLLTIVGALIGSSGAILSYIMCVAMNRSLANVILGGYGTTSTAGGKPMEISGTHTEINLDNAVEMIREANSIVITPGYGLCAAKAQYPIADLVKMLTEQGKKVRFGIHPVAGRMPGQLNVLLAEAGVPYDIVLEMDEINSDFPDTDLVLVIGANDTVNSAAQEDPNSIIAGMPVLEVWKSKQVIVMKRSLGVGYAAVDNPIFYKPNTAMLLGDAKKTCDALQAKVRESYQK
For the molecule B1, the binding entry is “binds”.

The values are drawn from PMC10403143.
